Data as given in paper doi:10.1101/2022.11.23.517591.
Results are given in words; binding and its absence hold for the method and conditions named. In cells and extracts the contact can be indirect. For some of these results: Binding can be weak; no strength is given. Sequences can lack the tags named with a protein. Blank lines part the entries; values can stand above or below the molecule they belong to.

Columns and labels:
[1] = target: T1, RGS1-YFP, from the 35S::RGS1-YFP transgenic line (Arabidopsis thaliana) (UniProt Q8H1F2); assay: co-IP
T1 sequence: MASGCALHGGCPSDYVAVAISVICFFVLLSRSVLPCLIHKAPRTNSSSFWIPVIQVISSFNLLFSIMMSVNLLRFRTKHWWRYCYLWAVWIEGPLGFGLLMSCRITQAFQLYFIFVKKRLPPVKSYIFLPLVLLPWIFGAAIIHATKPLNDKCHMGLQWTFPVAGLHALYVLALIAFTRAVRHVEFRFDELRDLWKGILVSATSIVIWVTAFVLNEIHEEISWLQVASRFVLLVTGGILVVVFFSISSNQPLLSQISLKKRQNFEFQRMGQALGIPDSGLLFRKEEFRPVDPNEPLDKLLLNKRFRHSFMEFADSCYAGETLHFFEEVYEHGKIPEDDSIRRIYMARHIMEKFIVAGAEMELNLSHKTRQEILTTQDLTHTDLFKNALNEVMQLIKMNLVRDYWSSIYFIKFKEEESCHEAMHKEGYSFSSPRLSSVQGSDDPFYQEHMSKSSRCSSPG

[2] = target: T2, VAP27-1-GFP, from the 35S:VAP27-1-GFP transgenic plant (Arabidopsis thaliana) (UniProt Q8VZ95); assay: co-IP
T2 sequence: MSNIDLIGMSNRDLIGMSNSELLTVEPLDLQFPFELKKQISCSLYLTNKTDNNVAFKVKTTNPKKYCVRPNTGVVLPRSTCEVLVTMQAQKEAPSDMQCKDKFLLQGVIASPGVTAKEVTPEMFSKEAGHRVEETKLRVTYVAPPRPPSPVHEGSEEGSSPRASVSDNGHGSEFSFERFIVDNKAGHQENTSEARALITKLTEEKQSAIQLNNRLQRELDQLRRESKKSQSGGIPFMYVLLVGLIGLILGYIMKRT

[3] = target: T3, VAP27-1, luciferase complementation fusion (Arabidopsis thaliana) (UniProt Q8VZ95); assay: split reporter
T3 sequence: T2 sequence

[4] = target: GST-VAP27-1 (Arabidopsis thaliana) (UniProt Q8VZ95); assay: pull-down

binding [1]: no binding | binding [2]: binds
Molecule: ORP2AS-3×Flag (ORP2A Short), from the 35S::ORP2Ag-3Flag transgenic line (Arabidopsis thaliana)

binding [3]: binds
Molecule: ORP2AS (ORP2A Short), luciferase complementation fusion (Arabidopsis thaliana)

binding [4]: binds
B1: ORP2A-3×Flag (Full-Length), from the 35S::ORP2Ag-3Flag transgenic line (protein, UniProt Q940Y1 1-721)
chain: MRVKELHPLCCITLESPHGINSQSPEEPVTTALTRSRSLPAKSLTGGSESETVAGILYKWTNFGKGWRSRWFLLRNGILSYSKIRRPENLNLLSPDDDVRLIGDISGERLSRMDSCSGRRKQQKTVGIVHLKVSSFRESKSDDRKFYIFTATKTLHLRTDSITDRAAWLQALASTKCIFPLRSLNGDFSFIPPKDLSISTERLKKRLHEEGMNENLVKECEQIMLSEFSEMHGQVKLLHEERTNLLDALRQLEAANLEVGASGKHEFSSLGRGKYSECSTTASSDGKQEFEDVSEEDEPSFHDTKEFFNEPNIGSESNLAISGHTDIKRRTKLPDPAEKEKGVSLWSMIKDNVGKDLTRVCLPVYFNEPISSLQKCFEDLEYSYLLDRAYEHGKSGNGLLRALNVAAFAVSGYASTEGRHCKPFNPLLGETYEADFPEKGIRFFSEKVSHHPTVIACHCEGKGWKFWGDTNLRSKFWGRSIQVEPVGVLTLEFDDGEVFQWSKVTSTIYNIILGKLYCDHHGVMQIRGNRQYSCTLKFKEQSILERNPHQVNGFVEDVAGQKAATIFGKWDDSLYYVAGDGINKSKVSDPASNASLLWKRTKPPPNVTRYNLTSFAITLNELTPGLQEILPPTDSRLRPDQRHLENGEYEKANLEKQRLERRQRMSRQLQESGWRPRWFERQGESDTFKYTGGYWEARGHRNWDDCPDIFGEFTEELADAA
